# Test results published in PubChem BioAssay AID540276 (National Center for Advancing Translational Sciences (NCATS), 2011).
# Out of some 300,000 compounds screened, about 5,400 (1.8%) were called active. The shares of active, inactive and inconclusive entries below differ from those in the screen. The call rests on the fitted dose curve; tested in HEK293 cells. Potencies beside an inconclusive call are fits to weak or partial responses and may not hold up.
# Test: qHTS for inhibitors of binding or entry into cells for Marburg Virus
# Settings: Marburg virus pseudotyped entry inhibition, cell reporter; activity change, negative = inhibition: at 37.8 µM (top of the series) unless noted
# On the % scale 0 is the no-effect control and ±100 the full control effect; potency means the concentration at half of the fitted maximal effect.
SMILES,"activity change, negative = inhibition",Potency
COc1ccc(-c2nn(-c3ccccc3)cc2C(=O)OCC(=O)c2ccc(C)c([N+](=O)[O-])c2)cc1,inactive: -21.4%,
COc1ccc(-c2cnnc(CCCn3ccnc3-c3ccccc3)n2)cc1,,"inconclusive: 6.68 µM [inhibitor, single point]"
CCn1c(=O)c2sccc2n2c(CCC(=O)Nc3ccc(C(C)C)cc3)nnc12,inactive: 2.33% [at 46.1 µM],
O=C(Nc1ccccc1SCC1CSc2nc3ccccc3c(=O)n21)c1ccccc1Cl (stereo not given),,"inconclusive: 35.5 µM [inhibitor, single point]"
COc1cc(/C=N/N2C(=O)CSC2=S)cc(Br)c1O,inactive: -11.5%,
Cc1cccc(NC(=S)N(CCCN2CCCC2)Cc2cccn2Cc2ccc(Cl)cc2)c1,,active: 7.08 µM
COc1cccc(C2[C@H](C)C3(CCN2C)OCCO3)c1 (stereo not given in full),,"inconclusive: 11.2 µM [inhibitor, partial curve, poor fit]"
COc1ccccc1OCCNC(=O)CSC(=S)N1CCCC1,,"inconclusive: 3.16 µM [inhibitor, single point]"
COc1ccc(C(=O)OCC(=O)NCc2ccco2)cc1S(=O)(=O)N1CCN(c2cccc(Cl)c2)CC1,,"inconclusive: 8.91 µM [inhibitor, partial curve, poor fit]"
COCc1oc2ccc(NS(=O)(=O)c3ccc(C)cc3)cc2c1C(=O)OC,,"inconclusive: 1.41 µM [inhibitor, partial curve, poor fit]"
COc1cc(NC(=O)C23CC4CC(C2)CC(n2cnc([N+](=O)[O-])n2)(C4)C3)cc(OC)c1,,active: 2.51 µM
CCCCn1c(/N=C/c2cc(OC)ccc2O)nc2ccccc21,inactive: -19.5%,
O=C1CC(N2CCN(C/C=C/c3ccccc3)CC2)C(=O)N1Cc1ccc(N2CCCC2=O)cc1 (stereo not given),,"inconclusive: 20.6 µM [inhibitor, single point]"
O=C(CCNS(=O)(=O)c1ccccc1F)N1CCN(C(c2ccccc2)c2ccccc2)CC1,,"inconclusive: 35.5 µM [inhibitor, single point]"
O=C(c1cc2sccc2n1Cc1ccc(F)cc1)N1CCc2ccccc21,,"inconclusive: 28.2 µM [inhibitor, single point]"
CCN(CC)CCCN1C(=O)C(=O)/C(=C(\O)c2ccc(Cl)cc2)[C@@H]1c1ccccn1,inactive: 15.8%,
Cc1ccc(OCCSc2nc3ccc(NC(=O)c4ccco4)cc3s2)cc1,inactive: 11.6% [at 46.1 µM],
Cc1ccc(NC(=S)Nc2ccc(Br)cc2)cc1,,"inconclusive: 11.2 µM [activator, partial curve]"

SMILES,"activity change, negative = inhibition",Potency
CC(C)(C)C1CCc2onc(C(=O)NC3CCCC3)c2C1 (stereo not given),,"inconclusive: 10.3 µM [inhibitor, partial curve]"
CCOC(=O)C1CCCN(C(=O)c2ccc3nc(-c4cccc(OC)c4)oc3c2)C1 (stereo not given),,"inconclusive: 6.31 µM [inhibitor, single point]"
CCNC(=S)Nc1ccc(OCC)cc1,inactive: 12.3%,
CCCc1cc(C(=O)NCc2cccs2)no1,inactive: -2.26%,
O=S(=O)(c1ccc(F)cc1)c1nc(-c2ccc(F)cc2)oc1NCCN1CCOCC1,,"inconclusive: 35.5 µM [activator, single point]"
O=S(=O)(Nc1ccc2c(c1)CCC2)c1cccs1,inactive: -14.9%,
COc1cc(NC(=O)Cn2nnnc2-c2ccccc2F)cc(OC)c1OC,inactive: -2.22% [at 46.1 µM],
CCCC(C)C(=O)Nc1ncc(S(=O)(=O)c2ccc([N+](=O)[O-])cc2)s1 (stereo not given),inactive: -46.4% [at 46.1 µM],
COc1ccccc1/C=C\C(=O)NCC(=O)N/N=C(/C)c1cccc([N+](=O)[O-])c1,,"inconclusive: 5.01 µM [inhibitor, full curve, poor fit]"
O=C(CSc1nc2ccccc2[nH]1)N/N=C/c1ccco1,,"inconclusive: 6.31 µM [activator, single point]"
CC(=O)Nc1ccc(NC(=O)C(NS(=O)(=O)c2ccc(Br)s2)c2ccccc2)cc1 (stereo not given),,"inconclusive: 5.62 µM [inhibitor, single point]"
O=C(NCc1cccs1)C1CCCN(c2nc3ccccc3o2)C1 (stereo not given),inactive: -7.57%,
CCCCn1c(N)c(N(CC)C(=O)C2=COCCO2)c(=O)[nH]c1=O,inactive: 29.9%,
O=C(c1noc2c1CCCC2)N1CCC(CO)(Cc2ccccc2Cl)CC1,,"inconclusive: 12.6 µM [inhibitor, partial curve, poor fit]"
Clc1ccc(Nc2nc3ccccc3n3nnnc23)cc1,,"inconclusive: 16.4 µM [inhibitor, single point]"
OC(CNC1CCCC1)COc1ccc(Cl)cc1 (stereo not given),,"inconclusive: 22.4 µM [inhibitor, single point]"
Cc1ccc2oc(C(Cl)(Cl)Cl)cc(=O)c2c1,,active: 11.6 µM

# Two entries picked at random from the list so far:
SMILES,"activity change, negative = inhibition",Potency
CCN(CC)CCCN1C(=O)C(=O)/C(=C(\O)c2ccc(Cl)cc2)[C@@H]1c1ccccn1,inactive: 15.8%,
O=C(c1noc2c1CCCC2)N1CCC(CO)(Cc2ccccc2Cl)CC1,,"inconclusive: 12.6 µM [inhibitor, partial curve, poor fit]"
